Source: the supplement of paper PMC4604168 (melanoma cell lines)
The list shows a part of the results. Single values are uncertain, as repeats are few or missing.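 The apoptosis fraction was the count of cleaved-PARP antibody-stained nuclei relative to all DNA-stained nuclei, imaged in 1,536-well plates. Screening doses were set so most cells survived, and baseline and induced cleaved-PARP levels vary greatly across cell lines.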

What was measured:
Assay in all cases: cleaved PARP positive nuclei fraction relative to DMSO control; melanoma cells; higher = more apoptosis
Conditions in all cases: library dose: low library concentration; 72 h
MZ2-MEL = system: MZ2-MEL
MeWo = system: MeWo
RPMI7951 = system: RPMI7951
RVH-421 = system: RVH-421
SkMel28 = system: SkMel28
SkMel2 = system: SkMel2
SkMel30 = system: SkMel30
SkMel5 = system: SkMel5
UACC257 = system: UACC257
UACC62 = system: UACC62

Row | Structure (SMILES) | cleaved PARP positive nuclei fraction (MZ2-MEL) [%] | cleaved PARP positive nuclei fraction (MeWo) [%] | cleaved PARP positive nuclei fraction (RPMI7951) [%] | cleaved PARP positive nuclei fraction (RVH-421) [%] | cleaved PARP positive nuclei fraction (SkMel28) [%] | cleaved PARP positive nuclei fraction (SkMel2) [%] | cleaved PARP positive nuclei fraction (SkMel30) [%] | cleaved PARP positive nuclei fraction (SkMel5) [%] | cleaved PARP positive nuclei fraction (UACC257) [%] | cleaved PARP positive nuclei fraction (UACC62) [%]
1 | CCN(CC)CCNC(=O)c1c(C)[nH]c(/C=C2\C(=O)Nc3ccc(F)cc32)c1C [sunitinib] + COc1ccc(COc2ccc(Cc3cnc(N)nc3N)cc2OC)cc1 [GW2580] (first compound 0.4 µM, partner dose 1 µM) | 68.3 | 93.1 | 131 | 175 | 141 | 131 | 125 | 81.8 | 156 | 126
2 | CC(=O)O[C@@]12CO[C@@H]1C[C@H](O)[C@@]1(C)C(=O)[C@H](O)C3=C(C)[C@@H](OC(=O)[C@H](O)[C@@H](NC(=O)OC(C)(C)C)c4ccccc4)C[C@@](O)([C@@H](OC(=O)c4ccccc4)[C@H]21)C3(C)C [Docetaxel] + Cc1cc(N2CCOCC2)cc2[nH]c(-c3c(NC[C@@H](O)c4cccc(Cl)c4)cc[nH]c3=O)nc12 [BMS536924] (first compound 0.0001 µM, partner dose 0.2 µM) | 389 | 364 | 342 | 200 | 464 | 442 | 258 | 317 | 147 | 662
3 | CC1(C)CCC(c2ccc(Cl)cc2)=C(CN2CCN(c3ccc(C(=O)NS(=O)(=O)c4ccc(N[C@H](CCN5CCOCC5)CSc5ccccc5)c(S(=O)(=O)C(F)(F)F)c4)cc3)CC2)C1 + Cn1cc(/C=C2\C(=O)Nc3cccnc32)c2ccccc21 [GW441756] (first compound 0.4 µM, partner dose 0.4 µM) | 53.8 | 85.1 | 61.6 | 64.7 | 142 | 34.4 | 238 | 116 | 107 | 106
4 | Cn1sc(=O)n(Cc2ccccc2)c1=O + CC1(C)NC(=O)N(c2ccc([N+](=O)[O-])c(C(F)(F)F)c2)C1=O [nilutamide] (first compound 0.4 µM, partner dose 1 µM) | 41.4 | 102 | 53.5 | 58.1 | 93.9 | 127 | 64 | 125 | 40.8 | 50.5
5 | CCN(CC)CCNC(=O)c1c(C)[nH]c(/C=C2\C(=O)Nc3ccc(F)cc32)c1C [sunitinib] + O=c1cc(-c2cccc3c2Sc2ccccc2S3)oc(N2CCOCC2)c1 [KU55933] (first compound 0.4 µM, partner dose 1 µM) | 148 | 128 | 98.9 | 144 | 274 | 67.3 | 61.6 | 74.8 | 130 | 104
6 | Cn1cnc2c(F)c(Nc3ccc(Br)cc3Cl)c(C(=O)NOCCO)cc21 [selumetinib] + COc1cc2ncnc(Nc3ccc(Oc4ccccc4)cc3)c2cc1OC [SrcI1] (first compound 0.015 µM, partner dose 2 µM) | 220 | 115 | 67.3 | 104 | 128 | 181 | 238 | 70 | 30.2 | 50.8
7 | COc1ccc(C2=N[C@@H](c3ccc(Cl)cc3)[C@@H](c3ccc(Cl)cc3)N2C(=O)N2CCNC(=O)C2)c(OC(C)C)c1 [Nutlin-3] + O=C(O)c1ccc(-c2c[nH]c3ncc(-c4ccccc4)cc23)cc1C1CCCC1 [GSK650394] (first compound 0.1 µM, partner dose 0.16 µM) | 84.9 | 114 | 65.8 | 218 | 171 | 78.5 | 59.3 | 80.8 | 141 | 169
8 | Cn1sc(=O)n(Cc2ccccc2)c1=O + O=C(Nc1ccccc1)c1cc([N+](=O)[O-])ccc1Cl [GW9662] (first compound 0.4 µM, partner dose 2 µM) | 40.5 | 99.8 | 190 | 132 | 44.1 | 114 | 102 | 68.9 | 165 | 102
9 | NC1(c2ccc(-c3nc4ccn5c(=O)[nH]nc5c4cc3-c3ccccc3)cc2)CCC1 + NCC(=O)Nc1ccc(-n2nc(C(F)(F)F)cc2-c2ccc3c(ccc4ccccc43)c2)cc1 [OSU03012] (first compound 0.4 µM, partner dose 1 µM) | 44 | 67.1 | 66 | 26.3 | 77.4 | 78.5 | 112 | 95.2 | 268 | 368
10 | NC1(c2ccc(-c3nc4ccn5c(=O)[nH]nc5c4cc3-c3ccccc3)cc2)CCC1 + O=C(O)c1ccc(-c2c[nH]c3ncc(-c4ccccc4)cc23)cc1C1CCCC1 [GSK650394] (first compound 0.4 µM, partner dose 0.16 µM) | 147 | 397 | 43.5 | 72.5 | 136 | 140 | 62.6 | 131 | 42.5 | 165
11 | CC1(C)CCC(c2ccc(Cl)cc2)=C(CN2CCN(c3ccc(C(=O)NS(=O)(=O)c4ccc(N[C@H](CCN5CCOCC5)CSc5ccccc5)c(S(=O)(=O)C(F)(F)F)c4)cc3)CC2)C1 + COc1cc2c(Oc3ccc4[nH]c(C)cc4c3F)ncnc2cc1OCCCN1CCCC1 [cediranib] (first compound 0.4 µM, partner dose 0.4 µM) | 189 | 52.1 | 199 | 56 | 54 | 91.1 | 90 | 91.3 | 219 | 61
12 | CCN(CC)CCNC(=O)c1c(C)[nH]c(/C=C2\C(=O)Nc3ccc(F)cc32)c1C [sunitinib] + CCCCCCCCCCCC1=C(O)C(=O)C=C(O)C1=O [Embelin] (first compound 0.4 µM, partner dose 1.2 µM) | 100 | 139 | 58.2 | 62.8 | 127 | 84.6 | 32.7 | 70.1 | 30.5 | 101
13 | COc1ccc(C2=N[C@@H](c3ccc(Cl)cc3)[C@@H](c3ccc(Cl)cc3)N2C(=O)N2CCNC(=O)C2)c(OC(C)C)c1 [Nutlin-3] + COc1cc2c(Oc3ccc4[nH]c(C)cc4c3F)ncnc2cc1OCCCN1CCCC1 [cediranib] (first compound 0.1 µM, partner dose 0.4 µM) | 39.4 | 68.1 | 120 | 30.6 | 133 | 77.4 | 69.1 | 126 | 133 | 53.1
14 | CCN(CC)CCNC(=O)c1c(C)[nH]c(/C=C2\C(=O)Nc3ccc(F)cc32)c1C [sunitinib] + COc1ccc(-c2ccc3c(N4CCOCC4)nc(N4C[C@@H](C)O[C@@H](C)C4)nc3n2)cc1CO [KU0063794] (first compound 0.4 µM, partner dose 0.02 µM) | 14.7 | 1090 | 39.5 | 45 | 372 | 81.2 | 84.4 | 74.7 | 188 | 200
15 | CS(=O)(=O)c1ccc(C(=O)Nc2ccc(Cl)c(-c3ccccn3)c2)c(Cl)c1 [vismodegib] + COc1cc2ncnc(Nc3ccc(Oc4ccccc4)cc3)c2cc1OC [SrcI1] (first compound 1 µM, partner dose 2 µM) | 107 | 96.1 | 57.3 | 196 | 64.6 | 53.7 | 23.6 | 78.2 | 53.3 | 172
16 | C[C@]1(O)C[C@@H](c2nc(-c3ccc4ccc(-c5ccccc5)nc4c3)c3c(N)nccn32)C1 + O=S(=O)(c1ccccc1)N(CC(F)(F)F)c1ccc(C(O)(C(F)(F)F)C(F)(F)F)cc1 [T0901317] (first compound 0.4 µM, partner dose 1.4 µM) | 43.9 | 37.6 | 51.3 | 29.1 | 283 | 88.8 | 95.3 | 85.5 | 324 | 136
17 | COc1ccc(C2=N[C@@H](c3ccc(Cl)cc3)[C@@H](c3ccc(Cl)cc3)N2C(=O)N2CCNC(=O)C2)c(OC(C)C)c1 [Nutlin-3] + Cn1cncc1[C@@](N)(c1ccc(Cl)cc1)c1ccc2c(c1)c(-c1cccc(Cl)c1)cc(=O)n2C [tipifarnib] (first compound 0.1 µM, partner dose 0.01 µM) | 105 | 50.7 | 35 | 141 | 85.6 | 162 | 162 | 66.5 | 183 | 188
18 | Cn1cnc2c(F)c(Nc3ccc(Br)cc3Cl)c(C(=O)NOCCO)cc21 [selumetinib] + O=C(O)C(=O)Nc1sc2c(c1C(=O)O)CCNC2 [TCS401] (first compound 0.015 µM, partner dose 1.66667 µM) | 97.2 | 79.5 | 85.5 | 96.8 | 138 | 206 | 37.1 | 36.2 | 202 | 320
19 | COc1ccc(C2=N[C@@H](c3ccc(Cl)cc3)[C@@H](c3ccc(Cl)cc3)N2C(=O)N2CCNC(=O)C2)c(OC(C)C)c1 [Nutlin-3] + CCN(CC)CCCCNc1ncc2cc(-c3cc(OC)cc(OC)c3)c(NC(=O)NC(C)(C)C)nc2n1 [PD173074] (first compound 0.1 µM, partner dose 0.1 µM) | 161 | 163 | 32.6 | 224 | 230 | 123 | 125 | 92.9 | 63.4 | 187
20 | CS(=O)(=O)c1ccc(C(=O)Nc2ccc(Cl)c(-c3ccccn3)c2)c(Cl)c1 [vismodegib] + C=CCn1c(=O)c2cnc(Nc3ccc(N4CCN(C)CC4)cc3)nc2n1-c1cccc(C(C)(C)O)n1 [MK1775] (first compound 1 µM, partner dose 0.02 µM) | 108 | 55.1 | 96.7 | 101 | 345 | 59.2 | 65.8 | 137 | 71.4 | 152
21 | CN(c1ncccc1CNc1nc(Nc2ccc3c(c2)CC(=O)N3)ncc1C(F)(F)F)S(C)(=O)=O + O=C(O)c1ccc(-c2c[nH]c3ncc(-c4ccccc4)cc23)cc1C1CCCC1 [GSK650394] (first compound 0.08 µM, partner dose 0.16 µM) | 116 | 53.5 | 295 | 236 | 183 | 188 | 166 | 68 | 200 | 91.9

Single records, as listed above. Order of values: cleaved PARP positive nuclei fraction (MZ2-MEL) [%] | cleaved PARP positive nuclei fraction (MeWo) [%] | cleaved PARP positive nuclei fraction (RPMI7951) [%] | cleaved PARP positive nuclei fraction (RVH-421) [%] | cleaved PARP positive nuclei fraction (SkMel28) [%] | cleaved PARP positive nuclei fraction (SkMel2) [%] | cleaved PARP positive nuclei fraction (SkMel30) [%] | cleaved PARP positive nuclei fraction (SkMel5) [%] | cleaved PARP positive nuclei fraction (UACC257) [%] | cleaved PARP positive nuclei fraction (UACC62) [%]
NC1(c2ccc(-c3nc4ccn5c(=O)[nH]nc5c4cc3-c3ccccc3)cc2)CCC1 + NCC(=O)Nc1ccc(-n2nc(C(F)(F)F)cc2-c2ccc3c(ccc4ccccc43)c2)cc1 [OSU03012] (first compound 0.4 µM, partner dose 1 µM) is entered as 44 | 67.1 | 66 | 26.3 | 77.4 | 78.5 | 112 | 95.2 | 268 | 368
CC1(C)CCC(c2ccc(Cl)cc2)=C(CN2CCN(c3ccc(C(=O)NS(=O)(=O)c4ccc(N[C@H](CCN5CCOCC5)CSc5ccccc5)c(S(=O)(=O)C(F)(F)F)c4)cc3)CC2)C1 + Cn1cc(/C=C2\C(=O)Nc3cccnc32)c2ccccc21 [GW441756] (first compound 0.4 µM, partner dose 0.4 µM) is entered as 53.8 | 85.1 | 61.6 | 64.7 | 142 | 34.4 | 238 | 116 | 107 | 106
